Results are given in words; binding and its absence hold for the method and conditions named. Some entries that bind do so weakly or less than the wild type.
Molecular target: [125I]-IGF-I/IGFBP-3 complex (UniProt P17936)
Assay: solid plate binding assay, VN coated on wells, [125I]-IGF-I/IGFBP-3 added, gamma counter

The chains behind the UniProt entries cited, without tags or fusion partners. Where a name states a change or a piece, a line headed by the entry shows the natural chain unless it says otherwise.
UniProt P17936: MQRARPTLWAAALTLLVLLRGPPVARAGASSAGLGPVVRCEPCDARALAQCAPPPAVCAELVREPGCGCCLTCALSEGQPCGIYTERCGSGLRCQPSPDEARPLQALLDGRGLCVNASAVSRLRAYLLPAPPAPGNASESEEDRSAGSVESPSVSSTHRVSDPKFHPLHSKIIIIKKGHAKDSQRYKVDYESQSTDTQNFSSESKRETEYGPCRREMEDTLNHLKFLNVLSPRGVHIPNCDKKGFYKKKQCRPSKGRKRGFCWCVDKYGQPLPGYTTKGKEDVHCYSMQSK
UniProt P04004: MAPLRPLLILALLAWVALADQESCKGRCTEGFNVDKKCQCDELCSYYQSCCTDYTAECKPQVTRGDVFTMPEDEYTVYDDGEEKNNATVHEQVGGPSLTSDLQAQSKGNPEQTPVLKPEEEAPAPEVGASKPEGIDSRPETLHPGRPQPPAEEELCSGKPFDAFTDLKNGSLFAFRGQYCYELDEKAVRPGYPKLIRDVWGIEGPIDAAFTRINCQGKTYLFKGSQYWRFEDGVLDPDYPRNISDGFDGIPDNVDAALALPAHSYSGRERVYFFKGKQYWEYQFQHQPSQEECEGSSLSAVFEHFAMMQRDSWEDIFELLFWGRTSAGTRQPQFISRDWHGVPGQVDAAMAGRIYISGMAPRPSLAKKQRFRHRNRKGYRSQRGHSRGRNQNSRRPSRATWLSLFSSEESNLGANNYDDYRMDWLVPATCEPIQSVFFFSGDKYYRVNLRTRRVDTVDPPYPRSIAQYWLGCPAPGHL

binding: binds
Substance: Human VN: VN purified from human serum (from UniProt P04004 20-478)

Source: patent publication US20100303884A1
